Results deposited as PubChem BioAssay AID1224830 (NIAID, 2016).
Assay: 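Host factors that control LPS-induced TNF expression in human macrophages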 (primary screen). Cell system: human THP-1 monocytic leukaemia cells, TNF dual-luciferase reporter clone, PMA-differentiated to macrophage-like cells. Knock-down reagent: siRNA pool against human genes, 50 nM. Duration: LPS for 4 h, given about 3 days after siRNA transfection. Treatment: bacterial LPS (TLR4 ligand), 10 ng/ml. Read-out: 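Ratio of firefly to renilla light, scaled to the plate median and expressed as a robust z-score per replicate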. Reading the numbers: TNF reporter robust z-score: higher = stronger TNF reporter response to LPS. Rule for the call: 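a well is active when its z-score exceeds 2.8 or falls below -1.5; control wells carry no call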.
The whole screen tested about 18,000 reagents; below is a random part of them. About 2,900 of all reagents (16%) count as active. 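Calls are made per well; low scores hint the gene aids the LPS response, high scores that it dampens it.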 Repeated entries: four replicate wells of each siRNA pool.

CCL7 (GeneID 6354): TNF reporter robust z-score = -1.48; Outcome = inactive
CCL7 (GeneID 6354): TNF reporter robust z-score = -1.47; Outcome = inactive
CCL7 (GeneID 6354): TNF reporter robust z-score = -1.26; Outcome = inactive
CCL7 (GeneID 6354): TNF reporter robust z-score = 0.42; Outcome = inactive
FIGN (GeneID 55137): TNF reporter robust z-score = -1.07; Outcome = inactive
FIGN (GeneID 55137): TNF reporter robust z-score = -1.03; Outcome = inactive
FIGN (GeneID 55137): TNF reporter robust z-score = -0.62; Outcome = inactive
FIGN (GeneID 55137): TNF reporter robust z-score = -0.78; Outcome = inactive
FGFRL1 (GeneID 53834): TNF reporter robust z-score = 1.28; Outcome = inactive
FGFRL1 (GeneID 53834): TNF reporter robust z-score = 0.68; Outcome = inactive
FGFRL1 (GeneID 53834): TNF reporter robust z-score = 0.55; Outcome = inactive
FGFRL1 (GeneID 53834): TNF reporter robust z-score = 1.74; Outcome = inactive
AIFM1 (GeneID 9131): TNF reporter robust z-score = -1.12; Outcome = inactive
AIFM1 (GeneID 9131): TNF reporter robust z-score = -0.13; Outcome = inactive
AIFM1 (GeneID 9131): TNF reporter robust z-score = -0.35; Outcome = inactive
AIFM1 (GeneID 9131): TNF reporter robust z-score = 0; Outcome = inactive
PRKAG2 (GeneID 51422): TNF reporter robust z-score = 0.02; Outcome = inactive
PRKAG2 (GeneID 51422): TNF reporter robust z-score = -0.24; Outcome = inactive
PRKAG2 (GeneID 51422): TNF reporter robust z-score = 0.38; Outcome = inactive
PRKAG2 (GeneID 51422): TNF reporter robust z-score = 2.62; Outcome = inactive
LGALS14 (GeneID 56891): TNF reporter robust z-score = -1.73; Outcome = active
LGALS14 (GeneID 56891): TNF reporter robust z-score = -0.6; Outcome = inactive
LGALS14 (GeneID 56891): TNF reporter robust z-score = -1.64; Outcome = active
LGALS14 (GeneID 56891): TNF reporter robust z-score = -0.79; Outcome = inactive
LY6S-AS1 (GeneID 286122): TNF reporter robust z-score = 1.48; Outcome = inactive
LY6S-AS1 (GeneID 286122): TNF reporter robust z-score = 1.45; Outcome = inactive
LY6S-AS1 (GeneID 286122): TNF reporter robust z-score = 1.07; Outcome = inactive
LY6S-AS1 (GeneID 286122): TNF reporter robust z-score = 2.57; Outcome = inactive
KCNMB2 (GeneID 10242): TNF reporter robust z-score = 0.38; Outcome = inactive
KCNMB2 (GeneID 10242): TNF reporter robust z-score = 0.09; Outcome = inactive
KCNMB2 (GeneID 10242): TNF reporter robust z-score = -0.69; Outcome = inactive
KCNMB2 (GeneID 10242): TNF reporter robust z-score = -0.76; Outcome = inactive
SLC10A7 (GeneID 84068): TNF reporter robust z-score = -0.48; Outcome = inactive
SLC10A7 (GeneID 84068): TNF reporter robust z-score = -0.46; Outcome = inactive
SLC10A7 (GeneID 84068): TNF reporter robust z-score = -0.44; Outcome = inactive
SLC10A7 (GeneID 84068): TNF reporter robust z-score = -0.01; Outcome = inactive
STS (GeneID 412): TNF reporter robust z-score = -1.39; Outcome = inactive
STS (GeneID 412): TNF reporter robust z-score = -0.91; Outcome = inactive
STS (GeneID 412): TNF reporter robust z-score = -0.98; Outcome = inactive
STS (GeneID 412): TNF reporter robust z-score = -1.35; Outcome = inactive
PRRG4 (GeneID 79056): TNF reporter robust z-score = -0.97; Outcome = inactive
PRRG4 (GeneID 79056): TNF reporter robust z-score = 0.04; Outcome = inactive
PRRG4 (GeneID 79056): TNF reporter robust z-score = -0.04; Outcome = inactive
PRRG4 (GeneID 79056): TNF reporter robust z-score = -0.15; Outcome = inactive
ALAD (GeneID 210): TNF reporter robust z-score = 0.5; Outcome = inactive
ALAD (GeneID 210): TNF reporter robust z-score = 1.05; Outcome = inactive
ALAD (GeneID 210): TNF reporter robust z-score = 0.49; Outcome = inactive
ALAD (GeneID 210): TNF reporter robust z-score = 0.87; Outcome = inactive

Reagents above marked active:
LGALS14 (GeneID 56891): TNF reporter robust z-score = -1.73; Outcome = active
LGALS14 (GeneID 56891): TNF reporter robust z-score = -1.64; Outcome = active
